Reference: PubChem BioAssay AID2685 (National Center for Advancing Translational Sciences (NCATS), 2010)
The other results are listed elsewhere or left out. Shown are side measurements of this screen, not its main read-out; they come without a call. The list favours compounds with an active or inconclusive main result. Words in brackets tell the shape of the fitted curve; partial curves, single points and poor fits give uncertain potencies.

Test: qHTS Assay for Lipid Storage Modulators in Drosophila S3 Cells;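 on cell number change: cells counted by Cell Tracker Red CMTPX staining in the red channel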
Conditions: BODIPY lipid droplet fluorescence, 18-24 h; for cell number change: measured here: cell count max response, cells fed with added oleic acid
Method in brief: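 Laser-scanning cytometry quantifies lipid droplet accumulation (500–530 nm total intensity; droplet/cell object ratio) in oleic acid-fed (400 uM added) Drosophila S3 cells treated with a concentration series. 20 uM Triacsin C defined 100% inhibition.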

[1] = measured here: lipid fluorescence (Fed channel) AC50, cells fed with added oleic acid
[2] = measured here: cell number channel AC50, cells fed with added oleic acid

| Structure (SMILES) | cell number change [%] | AC50 [1] | AC50 [2] |
| --- | --- | --- | --- |
| COc1cc(OC)nc(NC(=O)NS(=O)(=O)c2ccc(OC(F)(F)F)cc2)n1 | -15.1 | 11.6 µM [falling, partial curve, poor fit] |  |
| Cc1ccc(C2=NN(S(C)(=O)=O)C(c3ccc4c(c3)OCO4)C2)cc1 (stereo unspecified) | 5.16 | 1.16 µM [rising, partial curve] |  |
| Cc1nn(C)cc1[C@@H]1C[C@H]2CN(Cc3cccc(Cl)c3)C(=O)[C@]23CCCN13 | 12.2 |  |  |
| CCOCCOCCC(C(=O)OCC)P(=O)(c1ccccc1)c1ccccc1 (stereo unspecified) | -113 | 0.651 µM [falling, single point] | 0.164 µM [falling, full curve, poor fit] |
| COc1ccc(-c2nc(CS(=O)CC(=O)N3CCc4ccccc4C3)c(C)o2)cc1 (stereo unspecified) | 25.7 | 8.2 µM [rising, partial curve, poor fit] | 6.51 µM [rising, single point] |
| Cc1ccccc1NC(=O)Cc1nc(-c2c[nH]c(C(=O)N3CCCC3)c2)cs1 | 42.2 | 7.31 µM [rising, partial curve, poor fit] | 16.4 µM [rising, partial curve, poor fit] |
| COC(=O)CSc1nnc(CNC(=O)c2ccccc2OC)n1C | -25.7 |  | 0.92 µM [falling, full curve, poor fit] |
| Cc1ccc(Cl)cc1N(C(=O)c1csnn1)C(C(=O)NC1CCCC1)c1ccco1 (stereo unspecified) | 20.6 | 0.206 µM [falling, single point] |  |
| CCCS(=O)(=O)c1c(S(=O)(=O)CCC)c2cnccn2c1C(=O)c1ccc(Cl)cc1 |  | 6.51 µM [falling, single point] | 1.3 µM [falling, full curve] |
| Cc1cc(C(=O)Nc2ccc(F)cc2C)n(-c2ccccc2)n1 | 67.3 | 0.092 µM [rising, full curve] | 0.082 µM [rising, full curve] |
| CCCn1c(=O)c(C(=O)NCc2ccc(OC)c(OC)c2)c(O)c2ccccc21 |  | 9.2 µM [rising, partial curve, poor fit] |  |
| COc1ccc(S(=O)(=O)N2CCN(CCCOc3ccc(F)cc3)CC2)cc1OC | 29.5 | 2.06 µM [rising, partial curve, poor fit] |  |
| Cc1cc2cc(CN(CCN3CCOCC3)C(=O)Nc3ccccc3F)c(=O)[nH]c2cc1C | -3.66 | 0.651 µM [rising, full curve, poor fit] |  |
| C=CCN=C1N[C@@H](c2ccccc2)C(C(=O)OC)=C(C)N1CC | 6.17 | 29.1 µM [rising, single point] |  |
| Cc1cccn2c(=O)c3cc(C(=O)NC4CCCC4)c(=N)n(C4CCCCC4)c3nc12 | 5.13 | 5.17 µM [falling, single point] |  |
| O=C(c1ccco1)N1N=C2CCCCCC2C1(O)C(F)(F)F (stereo unspecified) | -39.7 | 4.61 µM [falling, full curve] | 8.2 µM [falling, partial curve] |
| COc1cccc(C(=O)Nc2cccc(C(=O)NCC(C)C)c2)c1 | -4.4 |  | 0.13 µM [falling, full curve, poor fit] |
| Cc1cc(C)c(C#N)c(SCC(=O)c2cc(C)n(CCc3ccccc3)c2C)n1 |  |  | 0.82 µM [rising, single point] |
| COc1ccc(-c2csc(N(C)C(=O)c3ccco3)n2)cc1 | -6.2 | 0.13 µM [falling, full curve, poor fit] |  |

Of the compounds above, 2 contain an aryl thioether with sulfur outside any ring:

| Structure (SMILES) | cell number change [%] | AC50 [1] | AC50 [2] |
| --- | --- | --- | --- |
| COC(=O)CSc1nnc(CNC(=O)c2ccccc2OC)n1C | -25.7 |  | 0.92 µM [falling, full curve, poor fit] |
| Cc1cc(C)c(C#N)c(SCC(=O)c2cc(C)n(CCc3ccccc3)c2C)n1 |  |  | 0.82 µM [rising, single point] |

(cont.)

| Structure (SMILES) | cell number change [%] | AC50 [1] | AC50 [2] |
| --- | --- | --- | --- |
| CCn1c(SCC(=O)Nc2cccc(NC(=O)c3ccco3)c2)nnc1-c1cccs1 | 22.7 | 1.46 µM [rising, partial curve] |  |
| COC(=O)C(C)Sc1nc2c(cnn2-c2ccc(C)cc2)c(=O)[nH]1 (stereo unspecified) | 7.76 |  |  |
| CCOc1ccc(NC(=O)CCc2nnc3ccc(N4CCC5(CC4)OCCO5)nn23)cc1 | -9.48 | 0.00461 µM [rising, full curve, poor fit] |  |
| CC(C)CC(c1nnnn1C1CCCC1)N1CCC(C(N)=O)CC1 (stereo unspecified) | 41.6 |  | 29.1 µM [rising, single point] |
| CCOc1ccc(CCNC(=O)c2ccc(N3CCCC3=O)cc2)cc1OCC | 13.6 |  |  |
| Cc1c(C(=O)N2CCN(c3ccccc3)CC2)sc2nc3n(c(=O)c12)CCC3 | 6.57 |  |  |
| CCOC(=O)C1CCN(C(=O)CNC(=O)c2nn(-c3ccc(OC)cc3OC)c(=O)c3ccccc23)CC1 | -25.7 |  |  |
| O=C(CCCN1C(=O)c2ccccc2C1=O)Nc1ccccc1 | 1.6 |  |  |
| CCOC(=O)C1=C(C)NC(=O)NC1c1cccc(OC)c1OCc1ccccc1Cl (stereo unspecified) | -31.7 |  | 20.6 µM [falling, single point] |
| Oc1ccc(Nc2nc(-c3ccccc3O)nc3ccccc23)cc1 | 27.9 | 29.1 µM [rising, single point] |  |
| CCCCCCc1c(C)nc(-n2[nH]c(C)c(CCO)c2=O)[nH]c1=O | 1.97 |  |  |
| COc1ccc(S(=O)(=O)Nc2ccc(NC(C)=O)cc2)cc1Br | -22.5 | 16.4 µM [falling, single point] | 5.17 µM [rising, single point] |
| C=CCn1c(SCc2ccccc2F)nc2cc(C(=O)O)ccc2c1=O | 12 | 6.51 µM [rising, single point] |  |
| Cc1ccc(S(=O)(=O)N(Cc2cc3cc4c(cc3[nH]c2=O)OCCO4)CC2CCCO2)cc1 (stereo unspecified) | 14.3 |  |  |
| Cc1ccc(OCCCNCCO)c(Br)c1 | -30.4 | 0.58 µM [falling, full curve] | 5.8 µM [falling, full curve, poor fit] |
| CCOc1ccccc1CNC(=O)c1nn(CC)cc1[N+](=O)[O-] | -0.314 |  |  |
| COc1ccc(C(=O)Nc2ccc(NC(=O)c3cc(OC)c(OC)c(OC)c3)cn2)cc1 | 17.1 | 25.9 µM [falling, single point] |  |
| COC(=O)c1cc(Sc2cccc(Cl)c2Cl)ccn1 | 76.1 | 0.651 µM [rising, partial curve, poor fit] | 29.1 µM [rising, single point] |
